Assay results: ChEMBL document CHEMBL1221345, “Cytotoxic flavonoids from the leaves of Cryptocarya chinensis” (J Nat Prod, 2010)

Key:
Assay type in all cases: functional, cell-based
[1] = tested on: MCF7; assay: Cytotoxicity against human MCF7 cells after 72 hrs by MTS reduction assay; settings: MCF7, 72 h
[2] = tested on: NCI-H460; assay: Cytotoxicity against human NCI-H460 cells after 72 hrs by MTS reduction assay; settings: NCI-H460, 72 h
[3] = tested on: SF-268; assay: Cytotoxicity against human SF268 cells after 72 hrs by MTS reduction assay; settings: SF-268, 72 h

Measured: IC50

O=C1C[C@@H](c2ccccc2)Oc2cc(O)ccc21
> 50 µM: [1] | [2] | [3]
